Assay results: PubChem BioAssay AID2685 (National Center for Advancing Translational Sciences (NCATS), 2010)
The list shows a part of the results. These are further read-outs of the screen, such as a control signal, another cell line or another target. No call is given for them. Compounds called inactive in the main read-out are mostly missing here. Potencies come from curve fits of mixed quality, noted in brackets.

Experiment: qHTS Assay for Lipid Storage Modulators in Drosophila S3 Cells;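 as to cell number change: cells counted by Cell Tracker Red CMTPX staining in the red channel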
Details: BODIPY lipid droplet fluorescence, 18-24 h; for cell number change: measured here: cell count max response, cells fed with added oleic acid
Procedure, shortened: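 Laser-scanning cytometry quantifies lipid droplet accumulation (500–530 nm total intensity; droplet/cell object ratio) in oleic acid-fed (400 uM added) Drosophila S3 cells treated with a concentration series. 20 uM Triacsin C defined 100% inhibition.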

[1] = measured here: cell number channel AC50, cells fed with added oleic acid
[2] = measured here: lipid fluorescence (Fed channel) AC50, cells fed with added oleic acid

Row | SMILES | cell number change [%] | AC50 [1] | AC50 [2]
1 | CC(C)(C)C(=O)N(Cc1ccc(Cl)cc1)c1cnccn1 | -31.7 | 29.1 µM [falling, single point] | 29.1 µM [falling, single point]
2 | CNC(C)C#Cc1ccc2c(=O)c3c(OC)cccc3oc2c1 (stereo not drawn) | -39.2 | – | 29.1 µM [falling, single point]
3 | Cc1cc(NS(=O)(=O)c2ccc(NC(=O)c3ccco3)cc2)nc(C)n1 | 10.7 | – | –
4 | Cc1ccc(C)c(S(=O)(=O)ON2C(=O)c3ccccc3C2=O)c1 | -39.7 | 11.6 µM [falling, partial curve, poor fit] | –
5 | CSCC[C@H](NC(=O)[C@@H]1Cc2ccccc2CN1)C(=O)NC[C@H]1CC[C@H](C(=O)O)CC1 | 2.42 | – | –
6 | CC(C)(C)N1CC(c2nc3ccccc3n2CCOc2ccccc2)CC1=O (stereo not drawn) | 54.5 | 6.51 µM [rising, single point] | 0.231 µM [rising, full curve, poor fit]
7 | Cc1ccc2c(C)c(C(=O)N(Cc3ccc(N(C)C)cc3)C3CCS(=O)(=O)C3)oc2c1 (stereo not drawn) | -1.73 | – | 18.4 µM [falling, single point]
8 | COc1ccc(N(CC(=O)N2CCC(C(N)=O)CC2)S(=O)(=O)c2ccccc2)cc1 | 16.7 | – | 25.9 µM [falling, single point]
9 | CC(C)(C)C(=O)c1cn(CC(=O)O)c2ccccc12 | -12 | – | –
10 | Nc1nc(SCC(=O)NCc2ccccc2)n[nH]1 | -0.585 | – | 8.2 µM [rising, single point]
11 | COC(=O)c1ccccc1NC(=O)COc1ccccc1[N+](=O)[O-] | -12.6 | – | 0.082 µM [falling, full curve, poor fit]
12 | CCNc1nc(NCC)nc(OCCOC(=O)Nc2ccccc2)n1 | -9.16 | – | 1.16 µM [rising, full curve]
13 | Cc1ccc(-c2nc3ncccn3c2NC2CCCCC2)o1 | 75.6 | 10.3 µM [rising, partial curve] | 20.6 µM [rising, partial curve]
14 | Cc1ccc2nc(-c3ccccc3)c(CC(=O)O)c(C(=O)O)c2c1 | 13.9 | – | 0.00461 µM [rising, full curve]
15 | COc1ccc(C(=O)NC2CCN(CC(=O)N3CCCCC3)CC2)cc1 | 7.21 | – | 0.651 µM [rising, partial curve, poor fit]
16 | COc1ccc(-c2cc(=O)oc3c(C)c(OCC(=O)NCC4CCC(C(=O)O)CC4)ccc23)cc1 (stereo not drawn) | 18.8 | – | –
17 | Cc1ccc(S(=O)(=O)N2C(=O)CCC2C(=O)N2CCN(C)CC2)cc1 (stereo not drawn) | 6.82 | – | 6.51 µM [falling, single point]
18 | COc1cccc(CNc2ccc(N3CCCCC3)cc2)c1OC | -45.9 | 18.4 µM [falling, partial curve] | 20.6 µM [falling, partial curve]
19 | CCn1c(SCC(=O)Nc2ccccc2C(=O)OC)nc2c1c(=O)n(C)c(=O)n2C | 1.39 | – | 29.1 µM [falling, single point]
20 | O=C(c1ccco1)N1CCN(c2ccccc2F)CC1 | 30.5 | – | –
21 | CCc1nnc(NC(=O)CSc2nnc(-c3ccco3)n2CC)s1 | -7.02 | – | 29.1 µM [rising, single point]

An excerpt of these results, tab-delimited.
Row	SMILES	cell number change [%]	AC50 [1]	AC50 [2]
10	Nc1nc(SCC(=O)NCc2ccccc2)n[nH]1	-0.585	–	8.2 µM [rising, single point]
11	COC(=O)c1ccccc1NC(=O)COc1ccccc1[N+](=O)[O-]	-12.6	–	0.082 µM [falling, full curve, poor fit]
12	CCNc1nc(NCC)nc(OCCOC(=O)Nc2ccccc2)n1	-9.16	–	1.16 µM [rising, full curve]
13	Cc1ccc(-c2nc3ncccn3c2NC2CCCCC2)o1	75.6	10.3 µM [rising, partial curve]	20.6 µM [rising, partial curve]
14	Cc1ccc2nc(-c3ccccc3)c(CC(=O)O)c(C(=O)O)c2c1	13.9	–	0.00461 µM [rising, full curve]
15	COc1ccc(C(=O)NC2CCN(CC(=O)N3CCCCC3)CC2)cc1	7.21	–	0.651 µM [rising, partial curve, poor fit]
16	COc1ccc(-c2cc(=O)oc3c(C)c(OCC(=O)NCC4CCC(C(=O)O)CC4)ccc23)cc1 (stereo not drawn)	18.8	–	–
17	Cc1ccc(S(=O)(=O)N2C(=O)CCC2C(=O)N2CCN(C)CC2)cc1 (stereo not drawn)	6.82	–	6.51 µM [falling, single point]
18	COc1cccc(CNc2ccc(N3CCCCC3)cc2)c1OC	-45.9	18.4 µM [falling, partial curve]	20.6 µM [falling, partial curve]
19	CCn1c(SCC(=O)Nc2ccccc2C(=O)OC)nc2c1c(=O)n(C)c(=O)n2C	1.39	–	29.1 µM [falling, single point]
20	O=C(c1ccco1)N1CCN(c2ccccc2F)CC1	30.5	–	–

More records.

Row | SMILES | cell number change [%] | AC50 [1] | AC50 [2]
22 | CS(=O)(=O)c1ccccc1-c1nnc(-c2ccc(Cl)cc2)o1 | -18.3 | 0.146 µM [falling, full curve, poor fit] | 4.61 µM [falling, full curve, poor fit]
23 | OCCCCC#Cc1c(-c2ccsc2)sc2ccccc12 | 4.85 | – | 29.1 µM [rising, single point]
24 | CCC1Oc2ccc(C)cc2N(CC(=O)NCC2CCCO2)C1=O (stereo not drawn) | -19 | – | –
25 | Cc1ccc2c(c1)N(CC(=O)OCC(=O)NCc1ccccc1)C(=O)CO2 | -25.7 | – | 5.17 µM [falling, single point]
26 | Cc1nnc(SCCC(=O)Nc2nc(-c3ccccc3)ns2)s1 | -28.9 | – | 4.11 µM [rising, full curve, poor fit]
27 | COCCSc1nnc(NC(=O)CCS(=O)(=O)Cc2ccccc2)s1 | 22.9 | – | 29.1 µM [rising, single point]
28 | O=S(=O)(NCc1ccccc1)NCc1cccc(C(F)(F)F)c1 | 8.68 | – | –
29 | NS(=O)(=O)c1ccc(CCN2C(=O)CCC2=O)cc1 | 20.5 | – | –
30 | O=C1C2=C(CCCC2)C(=O)N1CNc1ccccc1 | 3.3 | – | 6.51 µM [rising, single point]
31 | COc1c(S(=O)(=O)n2nc(C)cc2C)ccc(Cl)c1Cl | 72.7 | 11.6 µM [rising, partial curve, poor fit] | 0.0326 µM [rising, full curve, poor fit]
32 | CCOC(=O)Cc1csc(NC(=O)c2cc(=O)c3ccccc3o2)n1 | -21.8 | – | 0.92 µM [falling, full curve, poor fit]
33 | COc1cc(NC(=O)CSc2nc3ccccc3cc2C)c(C(=O)O)cc1OC | 0.626 | 0.731 µM [falling, single point] | 1.16 µM [falling, single point]
34 | COc1cc(C)ccc1OCCCOc1ccccc1Br | -39.7 | 16.4 µM [falling, partial curve, poor fit] | 16.4 µM [falling, partial curve]
35 | O=C(NNC1=NCCCCC1)c1ccccc1 | -9.34 | – | –
36 | COc1ccc(Oc2cc(Cl)nc(N)n2)cc1 | -8.48 | – | –
37 | O=Cc1ccc(-c2ccc([N+](=O)[O-])cc2Cl)o1 | -15.4 | – | –
38 | COCCNC(=O)c1ccc(C2SCC(=O)N2CCc2ccccc2)cc1 (stereo not drawn) | 11.6 | – | 6.51 µM [falling, single point]
39 | CCC(C)Nc1nc(SC(C(C)=O)C(C)=O)nc(N(C)C)n1 (stereo not drawn) | -21 | – | 8.2 µM [rising, partial curve]
40 | O=c1oc2ccccc2c(N2CCOCC2)c1[N+](=O)[O-] | – | 4.61 µM [falling, partial curve] | –
41 | CCN(CC)c1ccc(/C=N/NS(=O)(=O)c2ccc(CNC(C)=O)cc2)cc1 | -10.2 | – | 10.3 µM [falling, partial curve, poor fit]
